Experimental data from publication PMC8161014.

B1: endogenous ADAR (adenosine deaminase acting on RNA) (protein, UniProt P55265 1-1226)
chain: MNPRQGYSLSGYYTHPFQGYEHRQLRYQQPGPGSSPSSFLLKQIEFLKGQLPEAPVIGKQTPSLPPSLPGLRPRFPVLLASSTRGRQVDIRGVPRGVHLRSQGLQRGFQHPSPRGRSLPQRGVDCLSSHFQELSIYQDQEQRILKFLEELGEGKATTAHDLSGKLGTPKKEINRVLYSLAKKGKLQKEAGTPPLWKIAVSTQAWNQHSGVVRPDGHSQGAPNSDPSLEPEDRNSTSVSEDLLEPFIAVSAQAWNQHSGVVRPDSHSQGSPNSDPGLEPEDSNSTSALEDPLEFLDMAEIKEKICDYLFNVSDSSALNLAKNIGLTKARDINAVLIDMERQGDVYRQGTTPPIWHLTDKKRERMQIKRNTNSVPETAPAAIPETKRNAEFLTCNIPTSNASNNMVTTEKVENGQEPVIKLENRQEARPEPARLKPPVHYNGPSKAGYVDFENGQWATDDIPDDLNSIRAAPGEFRAIMEMPSFYSHGLPRCSPYKKLTECQLKNPISGLLEYAQFASQTCEFNMIEQSGPPHEPRFKFQVVINGREFPPAEAGSKKVAKQDAAMKAMTILLEEAKAKDSGKSEESSHYSTEKESEKTAESQTPTPSATSFFSGKSPVTTLLECMHKLGNSCEFRLLSKEGPAHEPKFQYCVAVGAQTFPSVSAPSKKVAKQMAAEEAMKALHGEATNSMASDNQPEGMISESLDNLESMMPNKVRKIGELVRYLNTNPVGGLLEYARSHGFAAEFKLVDQSGPPHEPKFVYQAKVGGRWFPAVCAHSKKQGKQEAADAALRVLIGENEKAERMGFTEVTPVTGASLRRTMLLLSRSPEAQPKTLPLTGSTFHDQIAMLSHRCFNTLTNSFQPSLLGRKILAAIIMKKDSEDMGVVVSLGTGNRCVKGDSLSLKGETVNDCHAEIISRRGFIRFLYSELMKYNSQTAKDSIFEPAKGGEKLQIKKTVSFHLYISTAPCGDGALFDKSCSDRAMESTESRHYPVFENPKQGKLRTKVENGEGTIPVESSDIVPTWDGIRLGERLRTMSCSDKILRWNVLGLQGALLTHFLQPIYLKSVTLGYLFSQGHLTRAICCRVTRDGSAFEDGLRHPFIVNHPKVGRVSIYDSKRQSGKTKETSVNWCLADGYDLEILDGTRGTVDGPRNELSRVSKKNIFLLFKKLCSFRYRRDLLRLSYGEAKKAARDYETAKNYFKKGLKDMGYGNWISKPQEEKNFYLCPV
B2: endogenous MOV10 (protein, UniProt Q9HCE1 1-1003)
chain: MPSKFSCRQLREAGQCFESFLVVRGLDMETDRERLRTIYNRDFKISFGTPAPGFSSMLYGMKIANLAYVTKTRVRFFRLDRWADVRFPEKRRMKLGSDISKHHKSLLAKIFYDRAEYLHGKHGVDVEVQGPHEARDGQLLIRLDLNRKEVLTLRLRNGGTQSVTLTHLFPLCRTPQFAFYNEDQELPCPLGPGECYELHVHCKTSFVGYFPATVLWELLGPGESGSEGAGTFYIARFLAAVAHSPLAAQLKPMTPFKRTRITGNPVVTNRIEEGERPDRAKGYDLELSMALGTYYPPPRLRQLLPMLLQGTSIFTAPKEIAEIKAQLETALKWRNYEVKLRLLLHLEELQMEHDIRHYDLESVPMTWDPVDQNPRLLTLEVPGVTESRPSVLRGDHLFALLSSETHQEDPITYKGFVHKVELDRVKLSFSMSLLSRFVDGLTFKVNFTFNRQPLRVQHRALELTGRWLLWPMLFPVAPRDVPLLPSDVKLKLYDRSLESNPEQLQAMRHIVTGTTRPAPYIIFGPPGTGKTVTLVEAIKQVVKHLPKAHILACAPSNSGADLLCQRLRVHLPSSIYRLLAPSRDIRMVPEDIKPCCNWDAKKGEYVFPAKKKLQEYRVLITTLITAGRLVSAQFPIDHFTHIFIDEAGHCMEPESLVAIAGLMEVKETGDPGGQLVLAGDPRQLGPVLRSPLTQKHGLGYSLLERLLTYNSLYKKGPDGYDPQFITKLLRNYRSHPTILDIPNQLYYEGELQACADVVDRERFCRWAGLPRQGFPIIFHGVMGKDEREGNSPSFFNPEEAATVTSYLKLLLAPSSKKGKARLSPRSVGVISPYRKQVEKIRYCITKLDRELRGLDDIKDLKVGSVEEFQGQERSVILISTVRSSQSFVQLDLDFNLGFLKNPKRFNVAVTRAKALLIIVGNPLLLGHDPDWKVFLEFCKENGGYTGCPFPAKLDLQQGQNLLQGLSKLSPSTSGPHSHDYLPQEREGEGGLSLQVEPEWRNEL
B3: endogenous GART (glycinamide ribonucleotide transformylase) (protein, UniProt P22102 1-1010)
chain: MAARVLIIGSGGREHTLAWKLAQSHHVKQVLVAPGNAGTACSEKISNTAISISDHTALAQFCKEKKIEFVVVGPEAPLAAGIVGNLRSAGVQCFGPTAEAAQLESSKRFAKEFMDRHGIPTAQWKAFTKPEEACSFILSADFPALVVKASGLAAGKGVIVAKSKEEACKAVQEIMQEKAFGAAGETIVIEELLDGEEVSCLCFTDGKTVAPMPPAQDHKRLLEGDGGPNTGGMGAYCPAPQVSNDLLLKIKDTVLQRTVDGMQQEGTPYTGILYAGIMLTKNGPKVLEFNCRFGDPECQVILPLLKSDLYEVIQSTLDGLLCTSLPVWLENHTALTVVMASKGYPGDYTKGVEITGFPEAQALGLEVFHAGTALKNGKVVTHGGRVLAVTAIRENLISALEEAKKGLAAIKFEGAIYRKDVGFRAIAFLQQPRSLTYKESGVDIAAGNMLVKKIQPLAKATSRSGCKVDLGGFAGLFDLKAAGFKDPLLASGTDGVGTKLKIAQLCNKHDTIGQDLVAMCVNDILAQGAEPLFFLDYFSCGKLDLSVTEAVVAGIAKACGKAGCALLGGETAEMPDMYPPGEYDLAGFAVGAMERDQKLPHLERITEGDVVVGIASSGLHSNGFSLVRKIVAKSSLQYSSPAPDGCGDQTLGDLLLTPTRIYSHSLLPVLRSGHVKAFAHITGGGLLENIPRVLPEKLGVDLDAQTWRIPRVFSWLQQEGHLSEEEMARTFNCGVGAVLVVSKEQTEQILRDIQQHKEEAWVIGSVVARAEGSPRVKVKNLIESMQINGSVLKNGSLTNHFSFEKKKARVAVLISGTGSNLQALIDSTREPNSSAQIDIVISNKAAVAGLDKAERAGIPTRVINHKLYKNRVEFDSAIDLVLEEFSIDIVCLAGFMRILSGPFVQKWNGKMLNIHPSLLPSFKGSNAHEQALETGVTVTGCTVHFVAEDVDAGQIILQEAVPVKRGDTVATLSERVKLAEHKIFPAALQLVASGTVQLGENGKICWVKEE

Each molecule was assayed against StrepII-FLAG-tagged DCAF12 (WT) (human) (UniProt Q5T6F0) (assay: affinity purification with mass spectrometry; StrepII-FLAG-DCAF12 and HA-CUL4A co-expressed in HEK293T; Strep-TactinXT affinity purification followed by anti-HA immunoprecipitation; eluates of both steps analysed by LC-MS/MS; SCF^FBXL6 as control).

Row | binding | Molecule
1 | binds | X-linked inhibitor of apoptosis protein (XIAP) (from UniProt P98170 1-497)
2 | binds | B1
3 | binds | B2
4 | binds | B3

Row | Molecule | binding
5 | hemagglutinin (HA)-tagged CUL4A (from UniProt Q13619 1-759) | binds

No constants are given. Whether binding was seen depends on the method and setting. In cells and extracts the contact can be indirect. These calls come from enrichment with a bait or labelling near it, and not all partners need be listed.
